Results: article PMC7819943, “Rice protein-binding microarrays: a tool to detect cis-acting elements near promoter regions in rice”
Some of the results follow.

molecular target: T1, OsSMF1 (Oryza sativa, UniProt Q6ZLB0 1-436); test: protein-binding microarray (RPBM); PBS, 2% BSA, 51.3 ng/ul salmon testes DNA, 50 uM zinc acetate, 200 nM TF, 25 C, 1 h; high values mean tight binding; conditions: protein: recombinant; tags: N-terminal polyhistidine and DsRed monomer fusion (pET32a); chain copies: 2; label: CyDye5-dUTP incorporated in the synthesized complementary strand; 3' TTTTT single-stranded linker to array surface; dsDNA, one strand shown
T1 sequence: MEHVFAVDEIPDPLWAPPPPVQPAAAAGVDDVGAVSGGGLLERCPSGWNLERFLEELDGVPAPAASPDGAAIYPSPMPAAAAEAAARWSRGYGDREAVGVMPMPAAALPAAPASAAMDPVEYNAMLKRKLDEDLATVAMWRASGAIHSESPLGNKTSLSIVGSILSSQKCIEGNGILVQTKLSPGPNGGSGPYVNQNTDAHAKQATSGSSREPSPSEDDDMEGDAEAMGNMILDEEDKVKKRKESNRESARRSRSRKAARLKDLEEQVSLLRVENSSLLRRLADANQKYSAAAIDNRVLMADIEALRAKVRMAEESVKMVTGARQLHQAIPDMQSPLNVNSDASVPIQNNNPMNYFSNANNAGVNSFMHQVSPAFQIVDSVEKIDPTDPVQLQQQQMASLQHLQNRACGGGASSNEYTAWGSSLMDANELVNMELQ
In short: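 The binding signal is fluorescence intensity per feature, in arbitrary units, read on an Axon 4000B scanner. Polyhistidine- and DsRed-tagged transcription factors (N-terminal fusions) from E. coli BL21-CodonPlus were purified on Ni–NTA and applied at 200 nM for 1 h at 25 °C to a double-stranded, BSA-blocked custom Agilent array in buffer with 50 µM zinc acetate.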

Compared with “CTCTTCTTCTTCCTCACCAAAGTTGTTGAGTTGGTGTCCTCGGAGTCACCTAGTGCAG”, “ATCCGTCTTTTGCATTTGTTGTGTTCGATCTTATAACTGCCGGAGTCACCTAGTGCAG” is higher in binding signal: 3160 fluorescence intensity (a.u.) for the first, 3600 fluorescence intensity (a.u.) for the second.

First: CATGTTGTACGTACTCGGTTCTCACGTCATCATGATAGGGCGGAGTCACCTAGTGCAG
Second: TGGTCAGTTGAGGGAGTCAAAGTGATCTTCCATTACGGTTCGGAGTCACCTAGTGCAG
The binding signal of the first is higher: 11400 fluorescence intensity (a.u.) for the first, 3340 fluorescence intensity (a.u.) for the second.

First: TTGTTTCACCGCTTACGCCACGTGCGCCGCTCAGCTGTATCGGAGTCACCTAGTGCAG
Second: TTCACCTACTGCGTGAGAGATGGATGACTAGTCATGTTTGCGGAGTCACCTAGTGCAG
The binding signal of the first is higher: 9840 fluorescence intensity (a.u.) for the first, 5610 fluorescence intensity (a.u.) for the second.

Going from “TCCTGGGTCTATGTATTGGAGCTGTCAGTGTGTAGGTGGACGGAGTCACCTAGTGCAG” to “CCGTACACACACACGACGCAGCCGTAGACATGCAACCGAACGGAGTCACCTAGTGCAG”, the binding signal rises from 3470 fluorescence intensity (a.u.) to 3540 fluorescence intensity (a.u.).

First: TTCTTCTTTTCTTCTTGCTCATACAGTTCTTGAAACATAACGGAGTCACCTAGTGCAG
Second: ATAGGTGGTTGATTTATTTTGCGTAGGAGAGAGTACGTTGCGGAGTCACCTAGTGCAG
The binding signal of the first is higher: 5190 fluorescence intensity (a.u.) for the first, 3360 fluorescence intensity (a.u.) for the second.

Compared with “GATCGACACAGTAGTGGTACAGTGTGCGTGTGCGTGTGTGCGGAGTCACCTAGTGCAG”, “TATATCTTCATAAAACCAACTCAAACACGGATGACGTACCCGGAGTCACCTAGTGCAG” is higher in binding signal: 3950 fluorescence intensity (a.u.) for the first, 4730 fluorescence intensity (a.u.) for the second.

Compared with “CAATTCCCAGGGATCTCCCCGGTTGATGTCACTGTCGGTCCGGAGTCACCTAGTGCAG”, “CCATTGTGGATTTTGTGGCTGGAAAACTATGTGGCTTCTTCGGAGTCACCTAGTGCAG” is lower in binding signal: 4540 fluorescence intensity (a.u.) for the first, 3360 fluorescence intensity (a.u.) for the second.

Going from “CCTACAAACATTACTAAGCCGTCACGTGGCGCTCTAATAACGGAGTCACCTAGTGCAG” to “AGTCAAGCGGTTTGGTTCATTGGGATACCCAGGTTGTACGCGGAGTCACCTAGTGCAG”, the binding signal rises from 4340 fluorescence intensity (a.u.) to 14200 fluorescence intensity (a.u.).

Compared with “CTTGAACTGAACAAATCCATGGCGAAGTAGCTAGTGCTGACGGAGTCACCTAGTGCAG”, “CAAAGCGGCCCAACAATGAACACGTCACTTGTATTCACTACGGAGTCACCTAGTGCAG” is higher in binding signal: 5210 fluorescence intensity (a.u.) for the first, 7510 fluorescence intensity (a.u.) for the second.

Compared with “TTGGCTGGACACATGACGCATGCGAACCAGGTTATGGACGCGGAGTCACCTAGTGCAG”, “CCATGCCACGCTGTCCGTACCCCTGCCTGCGTGCGCACCGCGGAGTCACCTAGTGCAG” is higher in binding signal: 3780 fluorescence intensity (a.u.) for the first, 7880 fluorescence intensity (a.u.) for the second.

First: CTATACACAAAAGCTGATGTCATCACGCCTAACTCCTCTCCGGAGTCACCTAGTGCAG
Second: CGTTCGATTCGATTCGATTTCCGCCCAAAATTTCCCAAATCGGAGTCACCTAGTGCAG
The binding signal of the first is higher: 14800 fluorescence intensity (a.u.) for the first, 4480 fluorescence intensity (a.u.) for the second.

Going from “CTAGCTGCCAGGCTTTGGATTCTGAGCGCCACGTCAGGAACGGAGTCACCTAGTGCAG” to “TCTTCGAAGATGCTCATAGGGGTAGGGTTTGCGTGCGTGTCGGAGTCACCTAGTGCAG”, the binding signal falls from 15100 fluorescence intensity (a.u.) to 3190 fluorescence intensity (a.u.).

First: CAAGGCCGATGCAACACTGACGTGGCCATCAATTTGATCCCGGAGTCACCTAGTGCAG
Second: GGTATTTGTCTTTCACCTTGAGTCAGCCCCAATTTCCAATCGGAGTCACCTAGTGCAG
The binding signal of the first is higher: 10800 fluorescence intensity (a.u.) for the first, 6730 fluorescence intensity (a.u.) for the second.

Going from “CCATCTCAACCCATTTGCACCCACGTCGCCGTGCATCCGCCGGAGTCACCTAGTGCAG” to “TCTCTCTTCACGGGAGGGCAGTGTGGTTTTGGTCGGATTCCGGAGTCACCTAGTGCAG”, the binding signal falls from 3700 fluorescence intensity (a.u.) to 3530 fluorescence intensity (a.u.).

Compared with “GTGCCTGAACTAGCATAATCACTGTGTCACCATCTTTCCTCGGAGTCACCTAGTGCAG”, “CCTGATGACAATGTAACCACATCACATCTATTTGTAACATCGGAGTCACCTAGTGCAG” is lower in binding signal: 5850 fluorescence intensity (a.u.) for the first, 3950 fluorescence intensity (a.u.) for the second.

Compared with “TTTGCGGTGAAGGGTGAGTGTAGAAGTAGGGACTGTTGATCGGAGTCACCTAGTGCAG”, “TACATGTCTTATCCCTCTGACTTGGAAGACCATGAGCACACGGAGTCACCTAGTGCAG” is lower in binding signal: 5090 fluorescence intensity (a.u.) for the first, 3380 fluorescence intensity (a.u.) for the second.

Compared with “AAAACCGGCAAACTTTTATAGTGTGGCAATGTTTGGCAAGCGGAGTCACCTAGTGCAG”, “TAGATCAATGATGTTGCATGCAACTCACGCGACACATGGTCGGAGTCACCTAGTGCAG” is higher in binding signal: 3180 fluorescence intensity (a.u.) for the first, 40000 fluorescence intensity (a.u.) for the second.

Going from “AGTCGATGACATTTGGGTCGCACCTATAGACACAGCAAGTCGGAGTCACCTAGTGCAG” to “AAAAGAGCCCACATGTCGGTCCTAATCTGACTCAGCTCACCGGAGTCACCTAGTGCAG”, the binding signal rises from 3300 fluorescence intensity (a.u.) to 7920 fluorescence intensity (a.u.).

Compared with “ATTTAATCTTTATCAGGTTCGAACGGATAGGTCCATGAATCGGAGTCACCTAGTGCAG”, “CGGTTCACCTCACCTCACCACCGAACCCCACTCGATGGCACGGAGTCACCTAGTGCAG” is lower in binding signal: 32800 fluorescence intensity (a.u.) for the first, 22600 fluorescence intensity (a.u.) for the second.

Going from “GGCCGGAGGGCGGCCTCGGTGGCGTGGAGTTGGCAGCGGGCGGAGTCACCTAGTGCAG” to “ATGTAGTTTACCAGTTACATTGACCTGGACAGTACTCTAACGGAGTCACCTAGTGCAG”, the binding signal rises from 3770 fluorescence intensity (a.u.) to 4520 fluorescence intensity (a.u.).

Compared with “CACCACGGCCATCTCGTCAGTCAGTGTGACCCATCCGGCCCGGAGTCACCTAGTGCAG”, “CATGTTATGGAGCCAAGCCCTCCCCGTGACATGGACACGTCGGAGTCACCTAGTGCAG” is higher in binding signal: 4420 fluorescence intensity (a.u.) for the first, 5350 fluorescence intensity (a.u.) for the second.
